Data as given in PubChem BioAssay AID652259 (Drosophila RNAi Screening Center, 2013).
In all, the deposit lists about 22,000 reagents; shown is a random part of those with a known target gene and a result. Over the whole deposit, 233 (1.1%) are marked active. 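Light values are raw, unnormalised plate reads; the ratio scores behind the reporter calls were not deposited.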 Entries without a mark were called inactive. Reagents against one gene are numbered here. The record does not give: the amount of reagent, the time to read-out, the dose of the treatment.

- Test: 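Knock-downs that push a Wingless-driven reporter up or down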 (primary screen)
- Cell system: Drosophila clone 8 imaginal disc epithelial cells
- Knock-down reagent: long dsRNA against Drosophila genes
- Challenge: pathway stimulated by co-transfected Wingless expression plasmid
- Measured: 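Dual luciferase reads per well after Wingless plasmid stimulation: reporter firefly light and Renilla control light; activity is firefly divided by Renilla, a ratio not deposited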
- Direction: firefly reporter light: higher = more Wg reporter light, before normalisation; Renilla control light: higher = more transfected or surviving cells
- Active means: 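Strong candidates differ from their plate mean by at least two out of four per-plate statistical tests; weak candidates meet just one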
- Calls: active = candidate regulator (raises or lowers reporter); inactive = not a candidate

| target | dsRNA no. | reporter change call, replicate 1 | firefly reporter light, replicate 1 | firefly reporter light, replicate 2 | Renilla control light, replicate 1 | Renilla control light, replicate 2 |
| --- | --- | --- | --- | --- | --- | --- |
| CG3708 | 1 | – | 26166 | – | 14424 | – |
| Cdc5 (Cell division cycle 5) | 1 | – | 15802 | – | 2394 | – |
| CG33259 | 1 | – | 5372 | – | 2902 | – |
| cta (concertina) | 1 | – | 8368 | – | 2747 | – |
| CG15353 | 1 | – | 4813 | 6325 | 1500 | 2729 |
| CG11362 | 1 | – | 4107 | 8757 | 832 | 2180 |
| CG11362 | 2 | – | 7.83e5 | 7.92e5 | 3.61e5 | 3.53e5 |
| CG7506 | 1 | – | 6893 | – | 2235 | – |
| Glut3 (Glucose transporter type 3) | 1 | – | 17030 | – | 4731 | – |
| CG43068 | 1 | – | 16834 | – | 13724 | – |
| CCHa2 (CCHamide-2) | 1 | – | 16178 | 6.96e5 | 3472 | 3.36e5 |
| CG17974 | 1 | – | 3769 | 8689 | 1370 | 4099 |
| Nlp (Nucleoplasmin) | 1 | Wg reporter activity lowered (active) | 2294 | 2625 | 1468 | 2279 |
| CG8838 | 1 | – | 12632 | – | 4608 | – |
| CG7149 | 1 | – | 12400 | – | 6092 | – |
| CG30340 | 1 | – | 16146 | – | 6840 | – |
| Antdh (Antennal dehydrogenase) | 1 | – | 18108 | – | 9368 | – |
| CG15705 | 1 | – | 5005 | – | 2323 | – |
| CG33298 | 1 | – | 1443 | 7114 | 658 | 2374 |
| CG33298 | 2 | – | 8314 | – | 2336 | – |
| Wbp2 (WW domain binding protein 2) | 1 | – | 2913 | – | 328 | – |
| unc-13 | 1 | – | 2528 | – | 1349 | – |
| unc-13 | 2 | – | 3163 | – | 1297 | – |
| unc-13 | 3 | – | 1961 | 7250 | 935 | 2360 |
| CG13857 | 1 | – | 38885 | – | 6395 | – |
| CG32473 | 1 | – | 13545 | – | 4017 | – |
| CG32473 | 2 | – | 9784 | – | 4290 | – |
| Or13a (Odorant receptor 13a) | 1 | – | 14201 | – | 7975 | – |
| CG10286 | 1 | – | 4432 | – | 1725 | – |
| Ctr1C (Copper transporter 1C) | 1 | – | 9910 | – | 3896 | – |
| nxf4 (nuclear export factor 4) | 1 | – | 10007 | – | 3266 | – |
| TppII (Tripeptidyl-peptidase II) | 1 | – | 9328 | – | 3304 | – |
| RIOK2 (RIO kinase 2) | 1 | – | 15792 | – | 16113 | – |
| Eig71Ea (Ecdysone-induced gene 71Ea) | 1 | – | 8998 | – | 3808 | – |
| beta-PheRS (Phenylalanyl-tRNA synthetase, beta-subunit) | 1 | – | 1514 | 4633 | 684 | 1530 |
| CG14835 | 1 | – | 1699 | 9260 | 1309 | 3371 |
| heph (hephaestus) | 1 | – | 7768 | – | 2289 | – |
| heph (hephaestus) | 2 | – | 2485 | – | 961 | – |
| heph (hephaestus) | 3 | – | 29910 | – | 12599 | – |
| heph (hephaestus) | 4 | – | 18828 | – | 10233 | – |
| Grip84 (Gamma-tubulin ring protein 84) | 1 | – | 1994 | 4343 | 583 | 1003 |
| pnt (pointed) | 1 | Wg reporter activity raised (active) | 38956 | – | 8068 | – |
| Wnt6 (Wnt oncogene analog 6) | 1 | – | 3361 | 7749 | 1040 | 3496 |
| CG6329 | 1 | – | 14224 | – | 3243 | – |
| SPoCk (Secretory Pathway Calcium atpase) | 1 | – | 11716 | – | 4307 | – |
| SPoCk (Secretory Pathway Calcium atpase) | 2 | – | 10705 | – | 3371 | – |
| SPoCk (Secretory Pathway Calcium atpase) | 3 | – | 11589 | – | 4579 | – |
| SPoCk (Secretory Pathway Calcium atpase) | 4 | – | 14322 | – | 3943 | – |
| CG17562 | 1 | – | 13461 | – | 4136 | – |
| CHKov2 (CHK domain ov2) | 1 | – | 3376 | 3989 | 1540 | 618 |
| scrib (scribble) | 1 | – | 4083 | – | 1808 | – |
| scrib (scribble) | 2 | – | 5082 | – | 1298 | – |
| scrib (scribble) | 3 | – | 2611 | 3285 | 1130 | 1531 |
| scrib (scribble) | 4 | – | 4722 | – | 2283 | – |
| CG7567 | 1 | – | 8555 | – | 2774 | – |
| LysE (Lysozyme E) | 1 | – | 5405 | – | 2336 | – |
| CG14204 | 1 | – | 19847 | – | 9094 | – |
| CG34026 | 1 | – | 4624 | – | 1307 | – |
| CG13933 | 1 | – | 14333 | – | 3941 | – |
| Polr1E (RNA polymerase I subunit E) | 1 | – | 10560 | – | 3232 | – |
| Polr1E (RNA polymerase I subunit E) | 2 | – | 2442 | 5863 | 1243 | 2284 |
| CG33493 | 1 | – | 8621 | – | 3235 | – |
| CG8086 | 1 | – | 11376 | – | 5249 | – |
| CG8086 | 2 | – | 2410 | 6666 | 792 | 3024 |
| CG8028 | 1 | – | 20357 | – | 11840 | – |
| CG5177 | 1 | – | 16489 | – | 4721 | – |
| Adi1 (Acireductone dioxygenase 1) | 1 | – | 8923 | – | 3544 | – |
| Adi1 (Acireductone dioxygenase 1) | 2 | – | 4.99e5 | 5.32e5 | 2.25e5 | 1.87e5 |
| CG4892 | 1 | – | 2918 | 7667 | 1258 | 3208 |
| CG40486 | 1 | – | 2517 | 4745 | 739 | 1969 |
| CG6569 | 1 | – | 35477 | – | 6714 | – |
| CG13000 | 1 | – | 23229 | – | 9853 | – |
| CG13558 | 1 | – | 2006 | 6650 | 624 | 2292 |

11 neighbouring records already listed, for reference:
| target | dsRNA no. | reporter change call, replicate 1 | firefly reporter light, replicate 1 | firefly reporter light, replicate 2 | Renilla control light, replicate 1 | Renilla control light, replicate 2 |
| --- | --- | --- | --- | --- | --- | --- |
| scrib (scribble) | 3 | – | 2611 | 3285 | 1130 | 1531 |
| scrib (scribble) | 4 | – | 4722 | – | 2283 | – |
| CG7567 | 1 | – | 8555 | – | 2774 | – |
| LysE (Lysozyme E) | 1 | – | 5405 | – | 2336 | – |
| CG14204 | 1 | – | 19847 | – | 9094 | – |
| CG34026 | 1 | – | 4624 | – | 1307 | – |
| CG13933 | 1 | – | 14333 | – | 3941 | – |
| Polr1E (RNA polymerase I subunit E) | 1 | – | 10560 | – | 3232 | – |
| Polr1E (RNA polymerase I subunit E) | 2 | – | 2442 | 5863 | 1243 | 2284 |
| CG33493 | 1 | – | 8621 | – | 3235 | – |
| CG8086 | 1 | – | 11376 | – | 5249 | – |
